Publication PMC8143632

Sequences of proteins named here, by UniProt entry; tags and fusion partners are left off.
UniProt Q9UBU8: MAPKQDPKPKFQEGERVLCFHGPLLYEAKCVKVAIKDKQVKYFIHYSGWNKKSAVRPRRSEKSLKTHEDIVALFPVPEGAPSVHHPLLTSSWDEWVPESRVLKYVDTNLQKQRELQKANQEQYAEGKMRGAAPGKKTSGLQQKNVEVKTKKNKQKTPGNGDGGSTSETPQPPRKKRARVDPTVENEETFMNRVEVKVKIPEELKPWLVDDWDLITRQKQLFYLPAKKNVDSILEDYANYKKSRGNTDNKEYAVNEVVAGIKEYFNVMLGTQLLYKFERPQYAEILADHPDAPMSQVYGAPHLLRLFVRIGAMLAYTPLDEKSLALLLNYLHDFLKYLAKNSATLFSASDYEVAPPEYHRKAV
UniProt Q96QT6: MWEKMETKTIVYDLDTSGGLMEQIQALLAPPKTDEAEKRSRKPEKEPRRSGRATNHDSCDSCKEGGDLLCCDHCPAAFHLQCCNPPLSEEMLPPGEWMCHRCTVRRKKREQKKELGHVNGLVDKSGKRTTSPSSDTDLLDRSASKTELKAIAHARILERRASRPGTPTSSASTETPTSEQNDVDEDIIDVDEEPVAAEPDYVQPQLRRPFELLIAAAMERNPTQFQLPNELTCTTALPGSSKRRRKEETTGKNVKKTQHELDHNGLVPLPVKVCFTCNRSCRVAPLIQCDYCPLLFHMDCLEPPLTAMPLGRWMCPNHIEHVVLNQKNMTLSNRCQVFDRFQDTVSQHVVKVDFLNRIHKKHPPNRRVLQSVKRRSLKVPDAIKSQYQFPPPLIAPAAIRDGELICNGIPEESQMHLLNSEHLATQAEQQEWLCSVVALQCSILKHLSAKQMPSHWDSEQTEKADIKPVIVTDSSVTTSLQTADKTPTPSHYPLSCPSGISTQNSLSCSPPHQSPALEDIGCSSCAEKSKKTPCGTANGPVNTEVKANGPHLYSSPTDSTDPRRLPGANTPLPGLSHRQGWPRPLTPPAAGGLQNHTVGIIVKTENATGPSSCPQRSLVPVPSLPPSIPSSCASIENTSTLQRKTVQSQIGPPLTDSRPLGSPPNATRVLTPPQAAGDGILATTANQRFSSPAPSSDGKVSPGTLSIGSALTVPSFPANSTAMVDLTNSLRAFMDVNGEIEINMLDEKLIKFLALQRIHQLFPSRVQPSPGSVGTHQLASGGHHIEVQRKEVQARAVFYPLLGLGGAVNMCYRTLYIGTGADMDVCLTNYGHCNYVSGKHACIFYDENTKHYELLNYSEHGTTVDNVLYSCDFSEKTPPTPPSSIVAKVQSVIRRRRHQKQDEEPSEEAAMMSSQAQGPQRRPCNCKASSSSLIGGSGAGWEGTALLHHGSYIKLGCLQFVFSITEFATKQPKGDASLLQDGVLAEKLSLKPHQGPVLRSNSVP

T1: SIN3A-HaloTag (human) (UniProt Q96ST3)
T1 sequence: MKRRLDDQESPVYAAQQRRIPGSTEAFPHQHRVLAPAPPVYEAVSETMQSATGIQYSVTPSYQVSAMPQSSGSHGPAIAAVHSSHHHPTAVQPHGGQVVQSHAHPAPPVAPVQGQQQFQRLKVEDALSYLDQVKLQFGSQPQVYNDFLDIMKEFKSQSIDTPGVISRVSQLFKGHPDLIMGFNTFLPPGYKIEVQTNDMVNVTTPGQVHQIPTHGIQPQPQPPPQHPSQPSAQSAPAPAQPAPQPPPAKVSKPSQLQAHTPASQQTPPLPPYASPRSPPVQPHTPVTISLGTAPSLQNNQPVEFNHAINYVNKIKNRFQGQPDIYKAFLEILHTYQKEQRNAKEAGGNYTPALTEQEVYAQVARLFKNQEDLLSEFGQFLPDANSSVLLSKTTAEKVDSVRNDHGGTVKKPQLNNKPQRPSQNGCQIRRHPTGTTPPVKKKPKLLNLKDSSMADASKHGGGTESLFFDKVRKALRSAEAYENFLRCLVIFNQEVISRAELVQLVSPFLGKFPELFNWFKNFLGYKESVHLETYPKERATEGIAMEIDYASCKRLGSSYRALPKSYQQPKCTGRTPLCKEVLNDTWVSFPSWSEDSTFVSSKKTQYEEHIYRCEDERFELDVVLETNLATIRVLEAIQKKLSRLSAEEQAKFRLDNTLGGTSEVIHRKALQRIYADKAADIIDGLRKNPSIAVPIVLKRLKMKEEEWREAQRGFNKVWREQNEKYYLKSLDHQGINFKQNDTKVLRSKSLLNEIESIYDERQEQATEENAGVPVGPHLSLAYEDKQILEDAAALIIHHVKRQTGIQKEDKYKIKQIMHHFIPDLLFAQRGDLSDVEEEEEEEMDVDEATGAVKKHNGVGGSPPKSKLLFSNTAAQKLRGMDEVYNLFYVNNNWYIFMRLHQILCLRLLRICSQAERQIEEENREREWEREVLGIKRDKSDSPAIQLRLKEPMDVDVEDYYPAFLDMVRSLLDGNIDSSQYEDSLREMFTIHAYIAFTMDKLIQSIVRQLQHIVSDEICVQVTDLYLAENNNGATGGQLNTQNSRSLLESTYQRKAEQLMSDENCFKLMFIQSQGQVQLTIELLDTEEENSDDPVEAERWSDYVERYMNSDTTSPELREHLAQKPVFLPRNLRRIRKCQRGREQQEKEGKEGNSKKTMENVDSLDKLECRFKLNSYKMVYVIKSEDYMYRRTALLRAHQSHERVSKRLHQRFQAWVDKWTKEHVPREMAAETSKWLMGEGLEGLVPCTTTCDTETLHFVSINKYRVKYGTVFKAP

T2: SIN3B_2-HaloTag (human) (UniProt O75182)
T2 sequence: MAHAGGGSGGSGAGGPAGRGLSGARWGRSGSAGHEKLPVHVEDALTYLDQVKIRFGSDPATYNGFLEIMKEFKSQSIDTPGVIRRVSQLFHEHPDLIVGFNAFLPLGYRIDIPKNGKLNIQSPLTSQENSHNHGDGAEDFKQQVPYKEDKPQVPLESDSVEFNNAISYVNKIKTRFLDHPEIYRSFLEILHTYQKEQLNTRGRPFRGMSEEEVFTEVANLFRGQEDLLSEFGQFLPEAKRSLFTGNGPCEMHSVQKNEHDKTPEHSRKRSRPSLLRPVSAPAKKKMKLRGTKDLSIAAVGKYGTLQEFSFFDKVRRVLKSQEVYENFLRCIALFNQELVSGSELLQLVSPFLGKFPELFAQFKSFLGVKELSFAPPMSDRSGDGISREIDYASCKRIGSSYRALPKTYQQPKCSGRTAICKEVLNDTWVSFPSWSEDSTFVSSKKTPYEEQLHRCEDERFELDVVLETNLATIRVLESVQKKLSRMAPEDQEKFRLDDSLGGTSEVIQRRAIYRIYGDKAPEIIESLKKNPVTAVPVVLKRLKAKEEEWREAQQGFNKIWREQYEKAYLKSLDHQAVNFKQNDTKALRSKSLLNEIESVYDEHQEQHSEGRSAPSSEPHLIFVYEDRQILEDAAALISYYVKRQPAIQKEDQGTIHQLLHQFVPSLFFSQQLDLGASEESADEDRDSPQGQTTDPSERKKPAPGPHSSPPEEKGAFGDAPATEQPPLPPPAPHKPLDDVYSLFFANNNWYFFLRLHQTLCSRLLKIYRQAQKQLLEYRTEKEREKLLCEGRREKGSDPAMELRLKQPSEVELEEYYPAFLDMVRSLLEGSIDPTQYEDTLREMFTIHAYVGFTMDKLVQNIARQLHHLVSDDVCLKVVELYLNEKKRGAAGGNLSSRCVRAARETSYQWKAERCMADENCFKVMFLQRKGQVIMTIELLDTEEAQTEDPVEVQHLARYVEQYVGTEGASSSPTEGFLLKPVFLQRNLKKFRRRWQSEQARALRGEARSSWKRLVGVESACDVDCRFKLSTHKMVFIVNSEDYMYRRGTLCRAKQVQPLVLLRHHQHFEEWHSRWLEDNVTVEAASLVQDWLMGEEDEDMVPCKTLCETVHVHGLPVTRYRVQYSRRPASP

B1: BRMS1L (protein, UniProt Q5PSV4 1-323)
chain: MPVHSRGDKKETNHHDEMEVDYAENEGSSSEDEDTESSSVSEDGDSSEMDDEDCERRRMECLDEMSNLEKQFTDLKDQLYKERLSQVDAKLQEVIAGKAPEYLEPLATLQENMQIRTKVAGIYRELCLESVKNKYECEIQASRQHCESEKLLLYDTVQSELEEKIRRLEEDRHSIDITSELWNDELQSRKKRKDPFSPDKKKPVVVSGPYIVYMLQDLDILEDWTTIRKAMATLGPHRVKTEPPVKLEKHLHSARSEEGRLYYDGEWYIRGQTICIDKKDECPTSAVITTINHDEVWFKRPDGSKSKLYISQLQKGKYSIKHS
B2: SAP30 (protein, UniProt O75446 1-220)
chain: MNGFTPDEMSRGGDAAAAVAAVVAAAAAAASAGNGTGAGTGAEVPGAGAVSAAGPPGAAGPGPGQLCCLREDGERCGRAAGNASFSKRIQKSISQKKVKIELDKSARHLYICDYHKNLIQSVRNRRKRKGSDDDGGDSPVQDIDTPEVDLYQLQVNTLRRYKRHFKLPTRPGLNKAQLVEIVGCHFRSIPVNEKDTLTYFIYSVKNDKNKSDLKVDSGVH
B3: BRMS1 (protein, UniProt Q9HCU9 1-246)
chain: MPVQPPSKDTEEMEAEGDSAAEMNGEEEESEEERSGSQTESEEESSEMDDEDYERRRSECVSEMLDLEKQFSELKEKLFRERLSQLRLRLEEVGAERAPEYTEPLGGLQRSLKIRIQVAGIYKGFCLDVIRNKYECELQGAKQHLESEKLLLYDTLQGELQERIQRLEEDRQSLDLSSEWWDDKLHARGSSRSWDSLPPSKRKKAPLVSGPYIVYMLQEIDILEDWTAIKKARAAVSPQKRKSDGP
B4: SUDS3 (protein, UniProt Q9H7L9 1-328)
chain: MSAAGLLAPAPAQAGAPPAPEYYPEEDEELESAEDDERSCRGRESDEDTEDASETDLAKHDEEDYVEMKEQMYQDKLASLKRQLQQLQEGTLQEYQKRMKKLDQQYKERIRNAELFLQLETEQVERNYIKEKKAAVKEFEDKKVELKENLIAELEEKKKMIENEKLTMELTGDSMEVKPIMTRKLRRRPNDPVPIPDKRRKPAPAQLNYLLTDEQIMEDLRTLNKLKSPKRPASPSSPEHLPATPAESPAQRFEARIEDGKLYYDKRWYHKSQAIYLESKDNQKLSCVISSVGANEIWVRKTSDSTKMRIYLGQLQRGLFVIRRRSAA
B5: SAP30L (protein, UniProt Q9HAJ7 1-183)
chain: MNGFSTEEDSREGPPAAPAAAAPGYGQSCCLIEDGERCVRPAGNASFSKRVQKSISQKKLKLDIDKSVRHLYICDFHKNFIQSVRNKRKRKTSDDGGDSPEHDTDIPEVDLFQLQVNTLRRYKRHYKLQTRPGFNKAQLAETVSRHFRNIPVNEKETLAYFIYMVKSNKSRLDQKSEGGKQLE
B6: ING2 (protein, UniProt Q9H160 1-280)
chain: MLGQQQQQLYSSAALLTGERSRLLTCYVQDYLECVESLPHDMQRNVSVLRELDNKYQETLKEIDDVYEKYKKEDDLNQKKRLQQLLQRALINSQELGDEKIQIVTQMLELVENRARQMELHSQCFQDPAESERASDKAKMDSSQPERSSRRPRRQRTSESRDLCHMANGIEDCDDQPPKEKKSKSAKKKKRSKAKQEREASPVEFAIDPNEPTYCLCNQVSYGEMIGCDNEQCPIEWFHFSCVSLTYKPKGKWYCPKCRGDNEKTMDKSTEKTKKDRRSR
B7: FAM60A (protein, UniProt Q9NP50 1-221)
chain: MFGFHKPKMYRSIEGCCICRAKSSSSRFTDSKRYEKDFQSCFGLHETRSGDICNACVLLVKRWKKLPAGSKKNWNHVVDARAGPSLKTTLKPKKVKTLSGNRIKSNQISKLQKEFKRHNSDAHSTTSSASPAQSPCYSNQSDDGSDTEMASGSNRTPVFSFLDLTYWKRQKICCGIIYKGRFGEVLIDTHLFKPCCSNKKAAAEKPEEQGPEPLPISTQEW
B8: GATAD1 (protein, UniProt Q8WUU5 1-269)
chain: MPLGLKPTCSVCKTTSSSMWKKGAQGEILCHHCTGRGGAGSGGAGSGAAGGTGGSGGGGFGAATFASTSATPPQSNGGGGGKQSKQEIHRRSARLRNTKYKSAPAAEKKVSTKGKGRRHIFKLKNPIKAPESVSTIITAESIFYKGVYYQIGDVVSVIDEQDGKPYYAQIRGFIQDQYCEKSAALTWLIPTLSSPRDQFDPASYIIGPEEDLPRKMEYLEFVCHAPSEYFKSRSSPFPTVPTRPEKGYIWTHVGPTPAITIKESVANHL

Target: Halo-tagged MORF4L1 (human) (UniProt Q9UBU8)
Test: affinity purification with mass spectrometry; Halo-tagged bait stably expressed in Flp-In-293 cells; lysate with HL-SAN nuclease 2 U/ml for 2 h at 4 °C; bait captured on Magne HaloTag Beads, eluted with AcTEV Protease; MudPIT; enrichment over cells without transgene by QSPEC (Z-statistic >= 3 and log2 fold change >= 2)

| binding | Binder |
| --- | --- |
| no binding | B1 |
| no binding | B2 |
| no binding | B3 |
| no binding | B4 |
| no binding | B5 |
| no binding | B6 |

Target: Halo-tagged PHF12 (human) (UniProt Q96QT6)
Test: as above

| binding | Binder |
| --- | --- |
| no binding | B1 |
| no binding | B2 |
| no binding | B3 |
| no binding | B4 |
| no binding | B5 |
| no binding | B6 |

Target: T1, SIN3A-HaloTag (human)
Test: as above

| binding | Binder |
| --- | --- |
| binds | B1 |
| binds | B2 |
| binds | B3 |
| binds | B4 |
| binds | B7 |
| binds | B5 |

Target: T2, SIN3B_2-HaloTag (human)
Test: as above

| binding | Binder |
| --- | --- |
| binds | B1 |
| binds | B4 |
| binds | B8 |

No constants are given. Whether binding was seen depends on the method and setting. Binding seen in cells or lysates may run through a third protein. These calls come from enrichment with a bait or labelling near it, and not all partners need be listed. For part of these data: A no says only that the protein was not detected with the bait. For part of these data: Where a sequence is shown, tags or fusion partners need not be part of it.
